Record: PubChem BioAssay AID504764 (Drosophila RNAi Screening Center, 2011)
The screen tested about 22,000 reagents; below is an unselected part of those that have a named target and a result. In the full data, 403 (1.9%) were called active. 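Unnormalised raw counts per well; ratio z-scores behind the hit calls and whether each hit raises or lowers signal are not deposited.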 Names joined by + are all predicted targets of the reagent. The record does not give: the amount of reagent.

Purpose: 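Genome-wide screen for regulators of Notch-driven gene expression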 (primary screen)
Cells: Drosophila Kc167 cells
Reagent: long dsRNA against Drosophila genes
Time to read-out: about 5 days (4 days dsRNA, then 24 h after transfection)
Treatment: transfection of constitutively active membrane-tethered Notch lacking the extracellular domain, read 24 h later
Read-out: 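Light from a Notch-responsive E(spl)m3 luciferase reporter under active Notch, with control-promoter and no-Notch reporter wells to normalise; raw counts from paired wells a and b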
Reading the numbers: induced reporter light, run 1, well a and induced reporter light, run 1, well b: higher = more light from the Notch target reporter with active Notch; control promoter light, run 1, well a and control promoter light, run 1, well b: higher = more light from the viral control promoter (cell number, transfection, viability); uninduced reporter light, run 1, well a: higher = more light from the Notch target reporter without active Notch
Rule for the call: 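Wells with low control signal or poorly matching duplicates excluded; duplicates averaged; per source plate, z beyond ±2 for induced/control log2 ratio or beyond ±1.8 for induced/uninduced marks a hit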
Meaning of the calls: active = modifier hit (raised or lowered Notch signal); inactive = not a hit

gene,DRSC id,"induced reporter light, run 1, well a","induced reporter light, run 1, well b","control promoter light, run 1, well a","control promoter light, run 1, well b","uninduced reporter light, run 1, well a",call
bun (GeneID 34665),DRSC01253,1.39e5,94770,1.73e5,1.53e5,8460,inactive
bun (GeneID 34665),DRSC01255,1.58e5,1.57e5,2.34e5,2.27e5,8620,inactive
bun (GeneID 34665),DRSC03500,37900,37955,24705,29225,7655,inactive
COX6B (GeneID 32989),DRSC19590,99570,1.18e5,90090,71900,8205,inactive
Khc (GeneID 36810),DRSC07448,1.46e5,1.63e5,2.76e5,3.12e5,12225,inactive
CG6652 (GeneID 39905),DRSC10686,1.14e5,86230,69265,72615,8945,inactive
Gr57a (GeneID 37347),DRSC06401,1.31e5,1.51e5,1.73e5,1.41e5,5255,inactive
CG30495 (GeneID 246651),DRSC06703,1.75e5,1.67e5,2.40e5,2.09e5,16315,inactive
Bbd (GeneID 37314),DRSC06709,1.01e5,74925,1.27e5,1.35e5,8155,inactive
Ir48c (GeneID 36257),DRSC06154,1.02e5,96190,1.48e5,1.25e5,9092,inactive
Pms2 (GeneID 36705),DRSC07511,1.08e5,1.29e5,2.26e5,2.77e5,11942,inactive
CG15458 (GeneID 50124),DRSC20529,1.16e5,1.20e5,1.05e5,99795,9490,inactive
CG13438 (GeneID 37348),DRSC06398,1.11e5,1.59e5,2.85e5,2.30e5,9860,inactive
PGRP-SC1a (GeneID 35859),DRSC06482,1.99e5,1.89e5,2.14e5,2.14e5,16785,inactive
ver (GeneID 39432),DRSC10125,1.63e5,1.71e5,2.79e5,2.20e5,7565,inactive
Dlg5 (GeneID 34573),DRSC02964,94560,1.06e5,90020,1.06e5,10638,inactive
CG5866 (GeneID 42097),DRSC15900,2.06e5,2.13e5,2.09e5,2.09e5,18130,inactive
CG4074 + CG4186,DRSC11753,1.61e5,1.50e5,1.28e5,1.40e5,8235,inactive
Hsc70-2 (GeneID 41609),DRSC16710,2.18e5,2.40e5,1.94e5,1.72e5,18032,inactive
Mettl14 (GeneID 34138),DRSC03073,1.63e5,1.69e5,2.06e5,1.99e5,12995,inactive
mRpL4 (GeneID 49425),DRSC03562,2.05e5,2.05e5,1.86e5,2.02e5,17475,inactive
Prx4 (GeneID 53577),DRSC08668,1.17e5,92015,2.34e5,1.57e5,7030,inactive
CG13640 (GeneID 42967),DRSC14639,1.27e5,1.29e5,1.61e5,1.50e5,9520,inactive
Vps8 (GeneID 38735),DRSC09705,2.62e5,2.07e5,3.36e5,3.45e5,13030,inactive
CG34034 (GeneID 3885584),DRSC13506,56895,51285,67110,46145,8430,inactive
DnaJ-H (GeneID 34707),DRSC03273,1.56e5,1.90e5,1.42e5,1.58e5,14290,inactive
CG1440 (GeneID 31776),DRSC17915,1.56e5,1.76e5,2.70e5,2.49e5,12910,inactive
CG13599 (GeneID 42829),DRSC14602,1.61e5,1.86e5,2.27e5,1.92e5,13665,inactive
OtopLc (GeneID 7354434),DRSC18082,1.38e5,1.16e5,2.10e5,2.01e5,10260,inactive
OtopLc (GeneID 7354434),DRSC18083,93365,1.06e5,1.43e5,1.68e5,8515,inactive
OtopLc (GeneID 7354434),DRSC18132,1.72e5,1.41e5,2.93e5,2.76e5,10230,inactive
CG13288 (GeneID 38665),DRSC09962,2.92e5,2.00e5,2.20e5,2.25e5,7740,inactive
Cypl (GeneID 38069),DRSC08362,1.22e5,1.22e5,1.86e5,1.47e5,9680,inactive
GlnRS (GeneID 45786),DRSC14140,41135,29770,57795,74405,2555,inactive
